Drawing on ChEMBL document CHEMBL5308504, “Tm Shift (DSF) assay results for EUbOPEN Chemogenomics Library” (2023), this text covers ΔTm for one molecule.

Chains of the proteins cited; added tags and fusions are not shown. Lines headed by an entry give the natural chain unless they say otherwise; changes in a name come on top.
UniProt P00519, whole entry: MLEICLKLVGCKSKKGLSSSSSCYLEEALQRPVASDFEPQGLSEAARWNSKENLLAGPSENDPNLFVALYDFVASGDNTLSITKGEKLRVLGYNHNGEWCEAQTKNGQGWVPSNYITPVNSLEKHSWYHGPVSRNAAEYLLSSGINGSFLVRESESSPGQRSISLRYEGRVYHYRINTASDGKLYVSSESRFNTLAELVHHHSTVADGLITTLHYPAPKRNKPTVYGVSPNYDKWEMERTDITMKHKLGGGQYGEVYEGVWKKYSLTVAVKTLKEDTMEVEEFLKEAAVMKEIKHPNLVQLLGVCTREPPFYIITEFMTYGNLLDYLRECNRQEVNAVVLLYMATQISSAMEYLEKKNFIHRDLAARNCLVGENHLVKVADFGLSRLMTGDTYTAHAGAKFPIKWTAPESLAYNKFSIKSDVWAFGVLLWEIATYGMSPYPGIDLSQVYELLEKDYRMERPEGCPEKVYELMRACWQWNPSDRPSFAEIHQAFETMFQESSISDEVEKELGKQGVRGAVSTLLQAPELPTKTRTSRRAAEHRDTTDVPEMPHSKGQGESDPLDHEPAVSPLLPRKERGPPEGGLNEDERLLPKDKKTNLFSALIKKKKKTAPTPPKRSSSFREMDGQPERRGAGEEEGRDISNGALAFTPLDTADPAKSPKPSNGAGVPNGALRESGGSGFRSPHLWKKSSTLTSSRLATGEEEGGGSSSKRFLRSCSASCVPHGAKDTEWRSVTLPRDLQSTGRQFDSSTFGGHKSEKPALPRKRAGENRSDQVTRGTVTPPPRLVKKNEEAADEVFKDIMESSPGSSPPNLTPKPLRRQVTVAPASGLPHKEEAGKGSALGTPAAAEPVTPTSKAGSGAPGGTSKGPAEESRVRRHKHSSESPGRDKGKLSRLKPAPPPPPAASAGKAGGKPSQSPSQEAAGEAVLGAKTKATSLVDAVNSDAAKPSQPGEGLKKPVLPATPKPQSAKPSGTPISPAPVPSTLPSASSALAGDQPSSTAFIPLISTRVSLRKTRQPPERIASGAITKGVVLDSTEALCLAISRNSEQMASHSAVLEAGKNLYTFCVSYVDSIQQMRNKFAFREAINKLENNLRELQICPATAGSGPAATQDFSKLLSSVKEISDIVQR
UniProt P48730: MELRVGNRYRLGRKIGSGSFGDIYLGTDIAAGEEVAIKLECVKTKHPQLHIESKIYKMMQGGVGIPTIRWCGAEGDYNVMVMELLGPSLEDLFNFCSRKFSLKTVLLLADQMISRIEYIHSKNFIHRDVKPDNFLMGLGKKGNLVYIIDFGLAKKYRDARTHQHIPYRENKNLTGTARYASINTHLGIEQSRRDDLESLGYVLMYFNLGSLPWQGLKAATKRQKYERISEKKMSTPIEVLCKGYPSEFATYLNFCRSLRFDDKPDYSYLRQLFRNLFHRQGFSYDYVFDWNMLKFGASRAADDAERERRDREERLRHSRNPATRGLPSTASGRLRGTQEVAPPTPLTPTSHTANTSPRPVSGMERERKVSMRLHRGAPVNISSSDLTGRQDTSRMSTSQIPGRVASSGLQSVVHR
UniProt P49841: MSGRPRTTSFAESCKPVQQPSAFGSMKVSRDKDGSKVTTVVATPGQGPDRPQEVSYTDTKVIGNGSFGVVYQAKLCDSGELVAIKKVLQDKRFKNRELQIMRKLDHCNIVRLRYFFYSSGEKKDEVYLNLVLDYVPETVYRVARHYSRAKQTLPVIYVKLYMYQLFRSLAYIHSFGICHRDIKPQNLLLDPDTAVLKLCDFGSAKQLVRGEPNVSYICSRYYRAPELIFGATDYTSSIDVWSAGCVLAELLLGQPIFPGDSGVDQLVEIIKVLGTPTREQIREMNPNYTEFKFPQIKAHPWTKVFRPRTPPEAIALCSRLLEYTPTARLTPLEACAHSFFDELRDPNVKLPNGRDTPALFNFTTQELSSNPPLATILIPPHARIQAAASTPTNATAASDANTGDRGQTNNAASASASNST
UniProt P28482, whole entry: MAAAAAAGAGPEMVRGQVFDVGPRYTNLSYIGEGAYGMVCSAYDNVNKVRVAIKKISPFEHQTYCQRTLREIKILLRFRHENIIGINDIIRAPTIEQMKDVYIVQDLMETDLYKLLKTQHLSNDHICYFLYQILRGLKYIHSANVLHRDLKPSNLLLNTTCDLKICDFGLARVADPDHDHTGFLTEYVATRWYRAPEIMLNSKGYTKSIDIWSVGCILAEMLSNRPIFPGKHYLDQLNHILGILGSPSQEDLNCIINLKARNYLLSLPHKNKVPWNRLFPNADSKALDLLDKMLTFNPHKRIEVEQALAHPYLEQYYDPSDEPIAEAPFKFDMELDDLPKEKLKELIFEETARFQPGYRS

Common to all, as to settings: Compound concentration 20.0 uM, Protein concentration 2.0 uM, Result type QC Liability
Assay [1] addresses Tyrosine-protein kinase ABL1 (Homo sapiens) (UniProt P00519).
For assay [2], the target named is Cyclin-dependent kinase 2 (Homo sapiens) (UniProt P24941).
Assay [3] addresses Casein kinase I isoform delta (Homo sapiens) (UniProt P48730).
Assay [4] concerns the target Glycogen synthase kinase-3 beta (Homo sapiens) (UniProt P49841).
For assay [5], the target named is Mitogen-activated protein kinase 1 (Homo sapiens) (UniProt P28482).
The target of assay [6] is T1, Aurora kinase A (Homo sapiens) (UniProt O14965).
T1 sequence (whole entry): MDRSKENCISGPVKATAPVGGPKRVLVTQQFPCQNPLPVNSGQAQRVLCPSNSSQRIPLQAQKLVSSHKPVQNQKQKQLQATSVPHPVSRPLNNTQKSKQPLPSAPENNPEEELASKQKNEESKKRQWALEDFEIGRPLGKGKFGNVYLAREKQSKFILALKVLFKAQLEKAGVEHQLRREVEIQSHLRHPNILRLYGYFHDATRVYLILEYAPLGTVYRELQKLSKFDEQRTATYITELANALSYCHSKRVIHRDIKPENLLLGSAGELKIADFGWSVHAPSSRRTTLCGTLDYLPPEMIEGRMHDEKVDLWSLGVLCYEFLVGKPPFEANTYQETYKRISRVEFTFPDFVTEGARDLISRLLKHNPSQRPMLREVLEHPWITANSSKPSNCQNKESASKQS

For part of these data: What follows is the remainder of the data, with few or none of the highest values. For part of these data: This list holds what a sample rich in lowest values left over.

One may read the ΔTm as the change in melting temperature against a reference sample. As for `C[C@@H]1C[C@H](N)C[C@H](c2ccncc2NC(=O)c2ccc(F)c(-c3c(F)cccc3F)n2)C1`, the ΔTm came out at 1.24 °C in assay [1]; 0.66 °C in assay [2]; 0.51 °C in assay [3]; 7.41 °C in assay [4]; 0.39 °C in assay [5]; 0.62 °C in assay [6].
